This assay addresses GFP–INF2–WT expressed in HEK293T cells (UniProt Q27J81). As to the kind of experiment: co-IP; HEK293T transfected with GFP–INF2 (WT or mutant), co-transfected with HACdc42QL or a control plasmid; GFP-Trap agarose, 1 h at 4°C (10 mM Tris pH 7.5, 150 mM NaCl, 0.5 mM EDTA, 2% NP40, 10% glycerol); blots.

Sequences of proteins named here, by UniProt entry; tags and fusion partners are left off. A change or cut given only in a name is not applied to a line headed by its entry.
UniProt Q27J81: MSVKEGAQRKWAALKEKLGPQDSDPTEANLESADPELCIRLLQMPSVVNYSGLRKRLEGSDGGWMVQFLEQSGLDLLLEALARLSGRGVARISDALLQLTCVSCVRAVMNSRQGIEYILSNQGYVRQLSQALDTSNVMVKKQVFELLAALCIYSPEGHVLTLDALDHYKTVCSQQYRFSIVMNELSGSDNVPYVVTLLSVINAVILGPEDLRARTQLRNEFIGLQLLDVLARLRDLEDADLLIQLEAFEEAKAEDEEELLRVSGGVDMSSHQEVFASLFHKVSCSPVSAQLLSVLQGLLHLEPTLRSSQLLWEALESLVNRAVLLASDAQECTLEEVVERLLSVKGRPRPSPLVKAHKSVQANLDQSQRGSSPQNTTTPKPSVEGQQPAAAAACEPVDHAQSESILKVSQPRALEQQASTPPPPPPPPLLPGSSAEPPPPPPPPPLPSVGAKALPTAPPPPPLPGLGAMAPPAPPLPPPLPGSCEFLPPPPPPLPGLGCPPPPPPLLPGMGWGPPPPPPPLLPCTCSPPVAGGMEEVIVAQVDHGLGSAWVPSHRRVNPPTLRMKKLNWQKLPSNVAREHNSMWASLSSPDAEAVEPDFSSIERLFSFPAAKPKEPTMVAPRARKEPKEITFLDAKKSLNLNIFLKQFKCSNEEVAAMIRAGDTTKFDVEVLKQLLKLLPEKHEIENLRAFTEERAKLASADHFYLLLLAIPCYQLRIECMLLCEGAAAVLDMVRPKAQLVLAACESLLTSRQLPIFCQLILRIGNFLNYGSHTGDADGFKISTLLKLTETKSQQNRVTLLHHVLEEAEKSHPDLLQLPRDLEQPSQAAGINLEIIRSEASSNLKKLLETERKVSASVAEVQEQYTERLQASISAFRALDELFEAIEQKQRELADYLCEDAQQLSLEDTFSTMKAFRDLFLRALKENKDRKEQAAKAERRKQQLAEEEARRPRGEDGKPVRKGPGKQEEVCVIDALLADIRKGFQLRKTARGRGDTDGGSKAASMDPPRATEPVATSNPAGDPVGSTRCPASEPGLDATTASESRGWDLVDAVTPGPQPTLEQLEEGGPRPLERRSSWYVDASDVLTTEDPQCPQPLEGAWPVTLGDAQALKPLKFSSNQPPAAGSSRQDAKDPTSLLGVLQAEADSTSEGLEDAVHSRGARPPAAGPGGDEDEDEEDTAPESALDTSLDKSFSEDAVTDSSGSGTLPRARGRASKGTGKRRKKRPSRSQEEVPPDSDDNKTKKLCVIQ
UniProt P60953: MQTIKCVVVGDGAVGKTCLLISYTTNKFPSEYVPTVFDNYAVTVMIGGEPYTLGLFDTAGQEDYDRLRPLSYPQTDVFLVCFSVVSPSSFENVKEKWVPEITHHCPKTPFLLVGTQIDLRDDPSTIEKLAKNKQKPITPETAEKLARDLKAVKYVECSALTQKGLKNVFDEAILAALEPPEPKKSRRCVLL

The record followed here is paper PMC4770304.

These are yes or no findings as the source states them, for the method shown. In cells and extracts the contact can be indirect. Binding can be weak; no strength is given.

With “HACdc42QL (active form of cdc42) (from UniProt P60953)”, the binding result is recorded as “binds”.
